# Assay results taken from the supplement of paper PMC8728848.
# This is one part of the list.
# B1: Blon2355mut (Bifidobacterium longum) (protein)
# chain: MVQEPTLEWHVIPEPTNVEPLVGTCSLPLSGTVVEQRGADDAEAVFARQLVDDIKRVCGGRWQVASGEVQREVTLRTSPSLDDWSYVLEVSPDGVVITGSGFEGVRDGVQTLRQIIRQIGLTIPCMVIRDRPAFSTRGYYLDVTRGRVPSMAWLKSWVDRLCFYKYNQFQLYIEHTFQFNGLSEVWRGADPLTSSDILELDSYCAARGIELVPSVSTFGHHYTALRTRQLRDLGEFPEDADRPFSLIERMTHHTLNITDERSYEFSTSLIDELMPLFRSRKFNICANETFDLGKGRSKQESAKRGVGAMYADFVERLCRHVDDRGHDVMVWADVALEHPEIIDTLPKNITWLNWQYEPNVDDGTTAALADAGATQMVCPAVWCWNALIPRIDDAWNNITRMARHGRAHDVSGMLVTDWGDFGHVNDPRMSVPGMIFGAQQSWNPDAELSEVDMLSRISTIEYGDHTGSVVGALRGASAKGGFSWSDLVTYLELDDGRGGCNTEIVRVMGCLEAYRNDLPQSGQARLADARVSMLRTLRDSILAGRELNGKLDDAAKDITQLLRVAGDPSSAAVWSLAIDGQRLLNRVGLALLAAHGVVRQDEAGIDAAKLADELECWTEQYSRLWHEVSRQSELARIQHVVWRAADVLRSI
# Tests used:
# Assay in all cases: glycan array binding signal (z-score within array); higher = stronger binding
# Conditions in all cases: glycan notation: IUPAC condensed, linker removed
# Gal3S(b1-4)Glc6S = target: Gal3S(b1-4)Glc6S
# Procedure, shortened: (§1)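 The binding signal is a Z-score computed within each array and averaged over linkers. Arrays of the same protein sequence at different concentrations or buffers were also averaged together. Data originate from 3228 arrays in the Consortium for Functional Glycomics database, kept only where the protein sequence was available.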
# Gal3S(b1-4)GlcNAc = target: Gal3S(b1-4)GlcNAc
# Procedure, shortened: as §1
# [1] = target: Gal3S(b1-4)[Fuc(a1-3)]Glc6S
# Procedure, shortened: as §1
# [2] = target: Gal3S(b1-4)[Fuc(a1-3)]GlcNAc
# Procedure, shortened: as §1
# [3] = target: Gal3S(b1-4)[Fuc(a1-3)]GlcNAc6S
# Procedure, shortened: as §1
# Gal3S4S(b1-4)GlcNAc = target: Gal3S4S(b1-4)GlcNAc
# Procedure, shortened: as §1
# Gal3S6S(b1-4)GlcNAc = target: Gal3S6S(b1-4)GlcNAc
# Procedure, shortened: as §1
# Gal3S6S(b1-4)GlcNAc6S = target: Gal3S6S(b1-4)GlcNAc6S
# Procedure, shortened: as §1
# Gal4S(b1-4)GlcNAc = target: Gal4S(b1-4)GlcNAc
# Procedure, shortened: as §1
# Gal4S6S(b1-4)GlcNAc = target: Gal4S6S(b1-4)GlcNAc
# Procedure, shortened: as §1
# Gal6P(b1-4)GlcNAc = target: Gal6P(b1-4)GlcNAc
# Procedure, shortened: as §1
# Gal6S(b1-3)GlcNAc = target: Gal6S(b1-3)GlcNAc
# Procedure, shortened: as §1
# Gal6S(b1-3)GlcNAc6S = target: Gal6S(b1-3)GlcNAc6S
# Procedure, shortened: as §1
# Gal6S(b1-4)Glc = target: Gal6S(b1-4)Glc
# Procedure, shortened: as §1
# Gal6S(b1-4)Glc6S = target: Gal6S(b1-4)Glc6S
# Procedure, shortened: as §1
# Gal6S(b1-4)GlcNAc = target: Gal6S(b1-4)GlcNAc
# Procedure, shortened: as §1
# Gal6S(b1-4)GlcNAc6S = target: Gal6S(b1-4)GlcNAc6S
# Procedure, shortened: as §1
# GalNAc(a1-3)Gal = target: GalNAc(a1-3)Gal
# Procedure, shortened: as §1
# GalNAc(a1-3)GalNAc = target: GalNAc(a1-3)GalNAc
# Procedure, shortened: as §1
# [4] = target: GalNAc(a1-3)GalNAc(a1-3)Gal(a1-4)Gal(b1-4)GlcNAc
# Procedure, shortened: as §1
# [5] = target: GalNAc(a1-3)GalNAc(b1-3)Gal(a1-4)Gal(b1-4)Glc
# Procedure, shortened: as §1
# GalNAc(b1-3)Gal = target: GalNAc(b1-3)Gal
# Procedure, shortened: as §1
# [6] = target: GalNAc(b1-3)Gal(a1-4)Gal(b1-4)GlcNAc
# Procedure, shortened: as §1
# [7] = target: GalNAc(b1-3)Gal(a1-4)Gal(b1-4)GlcNAc(b1-3)Gal(b1-4)Glc
# Procedure, shortened: as §1
# [8] = target: GalNAc(b1-3)Gal(a1-6)Gal(b1-4)Glc
# Procedure, shortened: as §1
# GalNAc(b1-3)GalNAc = target: GalNAc(b1-3)GalNAc
# Procedure, shortened: as §1
# GalNAc(b1-3)GlcNAc = target: GalNAc(b1-3)GlcNAc
# Procedure, shortened: as §1
# GalNAc(b1-4)Gal(b1-4)Glc = target: GalNAc(b1-4)Gal(b1-4)Glc
# Procedure, shortened: as §1
# GalNAc(b1-4)GlcNAc = target: GalNAc(b1-4)GlcNAc
# Procedure, shortened: as §1
# [9] = target: GalNAc(b1-4)GlcNAc(b1-2)Man
# Procedure, shortened: as §1
# [10] = target: GalNAc(b1-4)GlcNAc(b1-2)Man(a1-3)[GalNAc(b1-4)GlcNAc(b1-2)Man(a1-6)]Man(b1-4)GlcNAc(b1-4)GlcNAc
# Procedure, shortened: as §1
# [11] = target: GalNAc(b1-4)GlcNAc(b1-3)GalNAc(b1-4)GlcNAc
# Procedure, shortened: as §1
# GalNAc(b1-4)GlcNAc6S = target: GalNAc(b1-4)GlcNAc6S
# Procedure, shortened: as §1
# GalNAc(b1-6)GalNAc = target: GalNAc(b1-6)GalNAc
# Procedure, shortened: as §1
# GalNAc3S(b1-4)GlcNAc = target: GalNAc3S(b1-4)GlcNAc
# Procedure, shortened: as §1
# GalNAc3S(b1-4)GlcNAc3S = target: GalNAc3S(b1-4)GlcNAc3S
# Procedure, shortened: as §1
# [12] = target: GalNAc3S(b1-4)[Fuc(a1-3)]GlcNAc
# Procedure, shortened: as §1
# GalNAc4S6S(b1-4)GlcNAc = target: GalNAc4S6S(b1-4)GlcNAc
# Procedure, shortened: as §1
# GalNAc6S(b1-4)GlcNAc = target: GalNAc6S(b1-4)GlcNAc
# Procedure, shortened: as §1
# Glc(a1-4)Glc = target: Glc(a1-4)Glc
# Procedure, shortened: as §1
# [13] = target: Glc(a1-4)Glc(a1-4)Glc(a1-4)Glc
# Procedure, shortened: as §1
# Glc(a1-6)Glc(a1-6)Glc = target: Glc(a1-6)Glc(a1-6)Glc
# Procedure, shortened: as §1
# [14] = target: Glc(a1-6)Glc(a1-6)Glc(a1-6)Glc
# Procedure, shortened: as §1
# Glc(b1-4)Glc = target: Glc(b1-4)Glc
# Procedure, shortened: as §1
# Glc(b1-6)Glc = target: Glc(b1-6)Glc
# Procedure, shortened: as §1
# GlcA(b1-3)Gal = target: GlcA(b1-3)Gal
# Procedure, shortened: as §1
# GlcA(b1-3)GlcNAc = target: GlcA(b1-3)GlcNAc
# Procedure, shortened: as §1
# GlcA(b1-6)Gal = target: GlcA(b1-6)Gal
# Procedure, shortened: as §1
# [15] = target: GlcA3S(b1-3)Gal(b1-4)GlcNAc(b1-2)Man
# Procedure, shortened: as §1
# [16] = target: GlcA3S(b1-3)Gal(b1-4)GlcNAc(b1-3)Gal(b1-4)Glc
# Procedure, shortened: as §1
# [17] = target: GlcNAc(a1-3)Gal(b1-4)GlcNAc
# Procedure, shortened: as §1
# [18] = target: GlcNAc(a1-4)Gal(b1-3)GlcNAc
# Procedure, shortened: as §1
# [19] = target: GlcNAc(a1-4)Gal(b1-4)GalNAc
# Procedure, shortened: as §1
# [20] = target: GlcNAc(a1-4)Gal(b1-4)GlcNAc
# Procedure, shortened: as §1
# [21] = target: GlcNAc(a1-4)Gal(b1-4)GlcNAc(b1-3)Gal(b1-4)Glc
# Procedure, shortened: as §1
# [22] = target: GlcNAc(a1-4)Gal(b1-4)GlcNAc(b1-3)Gal(b1-4)GlcNAc
# Procedure, shortened: as §1
# [23] = target: GlcNAc(a1-4)Gal(b1-4)GlcNAc(b1-3)Gal(b1-4)GlcNAc(b1-3)Gal(b1-4)GlcNAc
# Procedure, shortened: as §1
# [24] = target: GlcNAc(a1-4)Gal(b1-4)GlcNAc(b1-3)Gal(b1-4)[Fuc(a1-3)]GlcNAc(b1-3)Gal(b1-4)[Fuc(a1-3)]GlcNAc
# Procedure, shortened: as §1
# [25] = target: GlcNAc(a1-6)Gal(b1-4)GlcNAc
# Procedure, shortened: as §1
# [26] = target: GlcNAc(b1-2)Gal(b1-3)GalNAc
# Procedure, shortened: as §1
binder,measurement,setting,value
B1,glycan array binding signal (z-score),Gal3S(b1-4)Glc6S,-0.345
same,glycan array binding signal (z-score),Gal3S(b1-4)GlcNAc,-0.393
same,glycan array binding signal (z-score),[1],3.52
same,glycan array binding signal (z-score),[2],0.971
same,glycan array binding signal (z-score),[3],0.587
same,glycan array binding signal (z-score),Gal3S4S(b1-4)GlcNAc,-0.808
same,glycan array binding signal (z-score),Gal3S6S(b1-4)GlcNAc,1.32
same,glycan array binding signal (z-score),Gal3S6S(b1-4)GlcNAc6S,1.03
same,glycan array binding signal (z-score),Gal4S(b1-4)GlcNAc,0.268
same,glycan array binding signal (z-score),Gal4S6S(b1-4)GlcNAc,0.175
same,glycan array binding signal (z-score),Gal6P(b1-4)GlcNAc,-0.404
same,glycan array binding signal (z-score),Gal6S(b1-3)GlcNAc,-0.433
same,glycan array binding signal (z-score),Gal6S(b1-3)GlcNAc6S,0.212
same,glycan array binding signal (z-score),Gal6S(b1-4)Glc,0.304
same,glycan array binding signal (z-score),Gal6S(b1-4)Glc6S,1.48
same,glycan array binding signal (z-score),Gal6S(b1-4)GlcNAc,1.32
same,glycan array binding signal (z-score),Gal6S(b1-4)GlcNAc6S,-1.15
same,glycan array binding signal (z-score),GalNAc(a1-3)Gal,-0.046
same,glycan array binding signal (z-score),GalNAc(a1-3)GalNAc,-0.381
same,glycan array binding signal (z-score),[4],-0.873
same,glycan array binding signal (z-score),[5],-1.15
same,glycan array binding signal (z-score),GalNAc(b1-3)Gal,-0.861
same,glycan array binding signal (z-score),[6],1.4
same,glycan array binding signal (z-score),[7],-0.283
same,glycan array binding signal (z-score),[8],-0.583
same,glycan array binding signal (z-score),GalNAc(b1-3)GalNAc,-0.665
same,glycan array binding signal (z-score),GalNAc(b1-3)GlcNAc,0.179
same,glycan array binding signal (z-score),GalNAc(b1-4)Gal(b1-4)Glc,-0.204
same,glycan array binding signal (z-score),GalNAc(b1-4)GlcNAc,3.04
same,glycan array binding signal (z-score),[9],0.782
same,glycan array binding signal (z-score),[10],-0.57
same,glycan array binding signal (z-score),[11],0.796
same,glycan array binding signal (z-score),GalNAc(b1-4)GlcNAc6S,2.38
same,glycan array binding signal (z-score),GalNAc(b1-6)GalNAc,0.004
same,glycan array binding signal (z-score),GalNAc3S(b1-4)GlcNAc,-0.364
same,glycan array binding signal (z-score),GalNAc3S(b1-4)GlcNAc3S,-0.051
same,glycan array binding signal (z-score),[12],0.145
same,glycan array binding signal (z-score),GalNAc4S6S(b1-4)GlcNAc,-0.651
same,glycan array binding signal (z-score),GalNAc6S(b1-4)GlcNAc,-0.569
same,glycan array binding signal (z-score),Glc(a1-4)Glc,0.744
same,glycan array binding signal (z-score),[13],2.06
same,glycan array binding signal (z-score),Glc(a1-6)Glc(a1-6)Glc,0.116
same,glycan array binding signal (z-score),[14],-0.66
same,glycan array binding signal (z-score),Glc(b1-4)Glc,-0.133
same,glycan array binding signal (z-score),Glc(b1-6)Glc,-0.548
same,glycan array binding signal (z-score),GlcA(b1-3)Gal,-1.31
same,glycan array binding signal (z-score),GlcA(b1-3)GlcNAc,-0.541
same,glycan array binding signal (z-score),GlcA(b1-6)Gal,0.584
same,glycan array binding signal (z-score),[15],-0.982
same,glycan array binding signal (z-score),[16],0.426
same,glycan array binding signal (z-score),[17],0.14
same,glycan array binding signal (z-score),[18],0.623
same,glycan array binding signal (z-score),[19],-0.513
same,glycan array binding signal (z-score),[20],-0.637
same,glycan array binding signal (z-score),[21],-0.818
same,glycan array binding signal (z-score),[22],-0.378
same,glycan array binding signal (z-score),[23],-1.03
same,glycan array binding signal (z-score),[24],-0.864
same,glycan array binding signal (z-score),[25],-0.447
same,glycan array binding signal (z-score),[26],-0.826

# 2 records picked at random from the list so far, as already listed:
binder,measurement,setting,value
B1,glycan array binding signal (z-score),Glc(b1-6)Glc,-0.548
same,glycan array binding signal (z-score),[26],-0.826

# A second format for some results above:
binder | measurement | setting | value
B1 | glycan array binding signal (z-score) | Gal6S(b1-4)Glc | 0.304
same | glycan array binding signal (z-score) | [16] | 0.426
